PubChem BioAssay AID2517 (National Center for Advancing Translational Sciences (NCATS), 2010)
“And” between values parts separate entries of the source, which are not always exact repeats. Equal entries are not always repeated. About 1,200 (0.34%) of roughly 350,000 compounds were called active. Inconclusive results, whose numbers are uncertain, are shown with a selection of clear calls. Calls follow the shape of the dose curve; as a rule, active = well fitted inhibition curve with a large enough effect; inconclusive = small, poorly fitted or top-dose-only effect; inactive = no such curve, though single readings can be large or run the other way. Potencies beside an inconclusive call are fits to weak or partial responses and may not hold up.

Protein sequences, listed by entry. Tags and fused reporters are not part of them.
UniProt P27695, whole entry, looked up: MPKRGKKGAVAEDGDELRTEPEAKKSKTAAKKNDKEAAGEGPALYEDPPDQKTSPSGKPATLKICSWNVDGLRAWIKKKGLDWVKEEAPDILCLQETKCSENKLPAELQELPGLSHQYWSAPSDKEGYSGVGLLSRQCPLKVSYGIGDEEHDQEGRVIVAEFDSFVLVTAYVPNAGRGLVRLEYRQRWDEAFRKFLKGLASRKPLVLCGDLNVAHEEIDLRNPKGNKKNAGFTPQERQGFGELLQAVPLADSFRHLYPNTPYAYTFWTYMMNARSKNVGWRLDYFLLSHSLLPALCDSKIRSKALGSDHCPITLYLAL

target: DNA repair nuclease/redox regulator APEX1 (Homo sapiens) (UniProt P27695); assay: qHTS Assay for Inhibitors of the Human Apurinic/apyrimidinic Endonuclease 1 (APE1); conditions: recombinant APE1, TAMRA/BHQ-2 abasic DNA cleavage fluorescence; activity change, negative = inhibition: at 65.8 µM (top of the series); also: nearly all actives have a fitted effect of over 55% in size;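 as to activity change, negative = inhibition: plate controls were vehicle for no effect and reference inhibitor for full effect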
How it was run: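 APE1 at 0.75 nM final was preincubated with compound 15 min at room temperature, then 50 nM double-stranded THF abasic-site substrate (5'-TAMRA/3'-BHQ-2) was added. Fluorescence (ex 525/em 598 nm) was read kinetically; third-minus-first read gave activity.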
Potency is read from the fitted curve at half-maximal effect.

SMILES | activity change, negative = inhibition | Potency
COC(=O)C(Cc1ccccc1)NS(=O)(=O)c1cc(Br)ccc1Br (configuration not stated) | inactive: -2.99% | 
O=c1nc2n(c3c1oc1ccccc13)Cc1ccccc1-2 |  | inconclusive: 20 µM [inhibitor, single point]
O=C(Nc1ccc2nc(-c3cccs3)[nH]c2c1)c1cccs1 | inactive: 17.6% | 
O=C(O)c1ccc(/C=C/c2ccc3cccc(O)c3n2)cc1 | inactive: -2.21% | 
CCN(CCNC(=O)Nc1ccc(Cl)cc1)c1ccccc1 |  | inconclusive: 44.7 µM [inhibitor, single point]
CSc1ccc(CCNC(=O)CN2C(=O)c3cccnc3Oc3ccc(C)cc32)cc1 | inactive: 13.1% | 
CCCCC/C=C\C/C=C\CCCCCCCCCC(N)=O | inactive: 3.71% | 
COc1ccc(C(=O)CC(=O)c2c(O)cc(OC)cc2OC)cc1 |  | inconclusive: 3.55 µM [inhibitor, single point]
COc1cc(OC)c([C@@H]2O[C@H](CO)[C@@H](O)[C@H](O)[C@H]2O)c(OC)c1 | inactive: -1.65% | 
CCOC(=O)c1sc(NC(=O)CSc2n[nH]c(-c3ccccc3)n2)c(C#N)c1C | inactive: 4.35% | 
COc1cc(/C=C2/C(=O)N(c3ccc(Br)cc3)N=C2C)cc([N+](=O)[O-])c1O |  | inconclusive: 37.7 µM [inhibitor, single point]
Cc1cc(=O)oc2c(CN3CCC(C)CC3)c(O)c(Cl)cc12 |  | inconclusive: 7.08 µM [inhibitor, partial curve]
CCC(=O)CC |  | inconclusive: 35.5 µM [inhibitor, single point]
Cc1nc2ccccc2nc1OCC(=O)Nc1cc(C(F)(F)F)ccc1N1CCOCC1 |  | inconclusive: 12.6 µM [inhibitor, partial curve, poor fit]
Oc1ccc(Nc2nc3ccccc3nc2Nc2ccc(O)cc2)cc1 |  | inconclusive: 25.1 µM [inhibitor, single point]
CCc1nnc(N2CCN(c3ncnc4c3oc3ccccc34)CC2)s1 |  | inconclusive: 44.7 µM [inhibitor, single point]
CC(=O)c1sc(C(C)(C)C)cc1NC(=O)/C=C/C(=O)O |  | inconclusive: 3.16 µM [inhibitor, single point]
COc1ccc(C[C@@H]2CN3C(=NC[C@@H]3C)N2C[C@H](C)NC(=O)CCC2CCCCC2)cc1 |  | inconclusive: 39.8 µM [inhibitor, single point]
Cc1ccccc1NC(NC(=O)OCCn1c([N+](=O)[O-])cnc1C)C(Cl)(Cl)Cl (configuration not stated) | inactive: 2.85% | 
NC(=O)C1CCN(c2nc(-c3ccc4occc(=O)c4c3)cs2)CC1 |  | inconclusive: 21.2 µM [inhibitor, single point]
Cc1ccc(C(=O)N/N=C/c2ccc3c(c2)OCO3)o1 | inactive: 0.552% | 
CCCSc1nnc(NC(=O)CSc2sc3c(O)cc(=O)[nH]c3c2C#N)s1 | inactive: 64.4% [at 12.4 µM] | 
CCOC(=O)c1sc(NC(=O)CSC(=S)N2CCN(C)CC2)nc1C |  | inconclusive: 2.51 µM [inhibitor, partial curve]

SMILES | activity change, negative = inhibition | Potency
O=C(/C=C/c1ccc(Br)cc1)c1ccco1 | inactive: -0.109% | 
O=S(=O)(c1cccc(-c2nnc(-c3cccnc3)o2)c1)N1CCCCC1 |  | inconclusive: 44.7 µM [inhibitor, single point]
CC(=O)N(C)c1ccc(NS(=O)(=O)c2cc(Cl)ccc2Cl)cc1 |  | inconclusive: 0.708 µM [inhibitor, full curve, poor fit]
O=Cc1ccc(Oc2ncccn2)cc1 |  | inconclusive: 44.7 µM [inhibitor, single point]
O=C(O)C1CCN(C(=O)c2ccccc2Cl)CC1 |  | inconclusive: 8.91 µM [inhibitor, single point]
S=C1SCN(Cc2ccccn2)CN1Cc1ccco1 | inactive: 1.32% | 
Cc1ccc(NC(=S)NC(=O)c2sc3ccccc3c2Cl)c(C(=O)O)c1 | inactive: -3.21% | 
O=C(Cc1ccccc1)NNC(=O)c1ccc(NC(=O)c2ccccc2)cc1 |  | inconclusive: 35.5 µM [inhibitor, single point]
COc1ccc(S(=O)(=O)N[C@@H](Cc2ccccc2)C(=O)N2CC[C@@]3(O)CCCC[C@H]3C2)cc1 |  | inconclusive: 39.8 µM [inhibitor, single point]
O=C(CSc1nnc(Cc2ccccc2)o1)Nc1ccc2c(c1)OCO2 |  | inconclusive: 0.794 µM [inhibitor, full curve, poor fit]
CC(C)Cn1c(SCC(=O)c2ccc(Cl)s2)nnc1-c1ccco1 |  | inconclusive: 44.7 µM [inhibitor, single point]
CN(C)c1ccc(/C=N/NC(=O)CSc2ccccn2)cc1 |  | inconclusive: 0.0562 µM [inhibitor, full curve, poor fit]
COC(=O)NC(/C(C(=O)OC)=C(\C)NCc1ccccc1)c1cccs1 (configuration not stated) |  | inconclusive: 6.31 µM [inhibitor, single point]
C/C(CC(=O)Nc1ccc(Cl)c(Cl)c1)=N\NC(=O)Cc1ccccc1 |  | inconclusive: 22.4 µM [inhibitor, single point]
CCN(CC)c1ccc(NC(=O)COC(=O)c2cccs2)cc1 |  | inconclusive: 3.16 µM [inhibitor, full curve]
CO[C@H]1COC(=O)[C@H](C)COC(=O)[C@@H](OCc2ccccc2)/C=C\[C@@H]1C |  | inconclusive: 7.94 µM [inhibitor, single point]
COC(=O)\C(C(C)=O)=C(/C=C/C=C/C=C/N(C)C)N(C)C |  | active: 7.94 µM
CCCn1c(C)nc2c(NCCCN(C)C)nc(C)nc21 | inactive: -2.92% | 
Cc1noc(/C=C/N(C)C)c1S(=O)(=O)N1CCCC(C(=O)Nc2ccc3c(c2)OCO3)C1 (configuration not stated) |  | inconclusive: 1.58 µM [inhibitor, full curve, poor fit]
COc1ccc(/C=N\NC(=O)c2cc(O)c(O)c(O)c2)cc1CN1CCN(c2ccc(F)cc2)CC1 |  | inconclusive: 7.94 µM [inhibitor, full curve]
O=C(CCN1CCN(S(=O)(=O)c2ccc(Cl)cc2)CC1)Nc1ccccc1F |  | inconclusive: 15.8 µM [inhibitor, partial curve]
CC(C)(C)c1ccc(/C=N/N2C(=O)CSC2=S)cc1 | inactive: -13.7% | 
CCOC(=O)C1=C(C)Nc2ccccc2N=C1NC(=O)/C=C/c1ccc(OC)cc1OC |  | inconclusive: 0.005 µM [inhibitor, full curve, poor fit]

SMILES | activity change, negative = inhibition | Potency
Cc1noc(C)c1-c1ccc2ncnc(NCc3ccc(C(F)(F)F)o3)c2c1 |  | inconclusive: 39.8 µM [inhibitor, single point]
CCCC(=Nc1ccc(N)cc1)C1=C(O)C(C(=O)OC)C(C)(C)CC1=O (configuration not stated) |  | inconclusive: 17.8 µM [inhibitor, single point]
CC(C)(C)OC(=O)C1=NOC2(C=CC(=O)C=C2)C1 |  | inactive and inconclusive: 7.08 µM [inhibitor, single point]
CCOC(=O)Nc1ccc2c(COC(=O)CNS(=O)(=O)c3cccc(Br)c3)cc(=O)oc2c1 |  | inconclusive: 22.4 µM [inhibitor, partial curve]
N#Cc1c(F)cccc1N1CCOCC1 |  | inconclusive: 0.0045 µM [inhibitor, full curve, poor fit]
Cc1ccc(S(=O)(=O)N2CC=C(C(=O)NCc3ccc(F)cc3)CC2)cc1 |  | inconclusive: 3.16 µM [inhibitor, single point]
C=CCNC(=O)COC(=O)c1ccccc1C(=O)N(C)C1CCCCC1 |  | inconclusive: 10 µM [inhibitor, single point]
O=C1Nc2ccc3sc4ccccc4c3c2C1=O |  | inconclusive: 1.78 µM [inhibitor, full curve]
CC(C)c1cccc(-c2ccc3c(c2)S(=O)(=O)c2cccc(C(=O)NCc4ccco4)c2C3=O)c1 | inactive: -38.4% | 
CC(C)CN1CC[C@@]2(CCCN(C(=O)c3csnn3)C2)C1 |  | inconclusive: 20 µM [inhibitor, partial curve, poor fit]
COc1ccc(C2NC(=O)NC(C)=C2C(=O)OC2CCC(C)CC2)cc1 (configuration not stated) | inactive: 5.81% | 
O=C(c1coc(=O)c(Br)c1)N1CCOCC1 |  | active: 12.6 µM
CCN1C(C)=C(C(=O)OC(C)C)C(c2ccccc2Cl)C(C(=O)O)=C1C(=O)O (configuration not stated) |  | inconclusive: 15.8 µM [inhibitor, partial curve, poor fit]
CCc1ccc(C2N(c3ccc(OC)cc3)C(=O)C3CCCN32)cc1 (configuration not stated) |  | inconclusive: 44.7 µM [inhibitor, single point]
Cc1c(CCO)c(=O)[nH]n1S(=O)(=O)c1cccc(C(F)(F)F)c1 | inactive: 29.5% | 
CCN(C(=O)COC(=O)CNC(=O)c1ccc(C)s1)c1ccccc1 |  | inconclusive: 25.1 µM [inhibitor, partial curve]
COc1cc([N+](=O)[O-])ccc1NC(=O)C[n+]1cccc(C(C)=O)c1 |  | inconclusive: 0.631 µM [inhibitor, full curve]
NC(=O)C1(N2CCCCC2)CCN(CCCC(=O)c2ccc(F)cc2)CC1 |  | inconclusive: 0.158 µM [inhibitor, full curve, poor fit]
O=c1n(Cc2cc3c(cc2Cl)OCO3)c(=O)n2n1CC[C@H]1/C(=N\OC[C@@H](O)COCc3ccco3)[C@H]3O[C@@H]3[C@@H](O)[C@@H]12 |  | inconclusive: 3.16 µM [inhibitor, single point]
O=C(COc1ccc2c(c1)oc(=O)c1ccccc12)N[C@@H](Cc1c[nH]c2ccccc12)C(=O)O | inactive: -14.4% | 
O=C(O)c1cc(-c2ccc(/C=N/N3C(=O)C4C5C=CC(C6CC56)C4C3=O)o2)ccc1Cl (configuration not stated) |  | inconclusive: 35.5 µM [inhibitor, single point]

Pulled by structure from the list above (4):
SMILES | activity change, negative = inhibition | Potency
COc1cc([N+](=O)[O-])ccc1NC(=O)C[n+]1cccc(C(C)=O)c1 |  | inconclusive: 0.631 µM [inhibitor, full curve]
CCN(C(=O)COC(=O)CNC(=O)c1ccc(C)s1)c1ccccc1 |  | inconclusive: 25.1 µM [inhibitor, partial curve]
O=c1n(Cc2cc3c(cc2Cl)OCO3)c(=O)n2n1CC[C@H]1/C(=N\OC[C@@H](O)COCc3ccco3)[C@H]3O[C@@H]3[C@@H](O)[C@@H]12 |  | inconclusive: 3.16 µM [inhibitor, single point]
CC(C)(C)OC(=O)C1=NOC2(C=CC(=O)C=C2)C1 |  | inactive and inconclusive: 7.08 µM [inhibitor, single point]
